PubChem BioAssay AID540256 (National Center for Advancing Translational Sciences (NCATS), 2011)
The whole screen tested about 300,000 compounds, of which about 3,700 (1.2%) were called active. The inconclusive results got no clear call from the source; some entries with a clear call stand among them for comparison. The call rests on the fitted dose curve; tested in HEK293 cells. Where the call is inconclusive, the potency comes from a doubtful curve fit.

assay: qHTS for Inhibitors of binding or entry into cells for Lassa Virus; conditions: Lassa virus pseudotype entry inhibition, cell reporter; series mostly up to 37.9 µM; further: nearly all actives have a fitted effect of over 50% in size
Potency means the concentration at half of the fitted maximal effect.

SMILES | Potency
Cc1cccc(NC(=O)c2c(C)oc3ncnc(N4CCCCC4)c23)c1C | inactive
CCOC(=O)N1CCN(C(=O)Cn2ncc3c4ccccc4n(Cc4ccc(F)cc4)c3c2=O)CC1 | inconclusive: 4.47 µM [inhibitor, full curve, poor fit]
Cc1cccc(CNC(=O)C2CCC(=O)N(Cc3ccccc3F)C2)n1 (stereo unspecified) | inconclusive: 3.55 µM [activator, partial curve, poor fit]
O=C(COc1ccc(F)cc1)Nc1ccc(Cl)c(-c2nc3ccccc3[nH]2)c1 | inconclusive: 35.5 µM [inhibitor, single point]
Cc1ccc(Nc2nc(N)nc(CSc3nccn3C)n2)cc1 | inconclusive: 0.291 µM [activator, partial curve, poor fit]
Cc1ccc(C(=O)N2CCN(c3ccccc3)CC2)cc1S(=O)(=O)N1CCCC1 | inconclusive: 35.5 µM [inhibitor, single point]
Cc1ccc(NC(=O)c2ccc(C(=O)c3ccccc3)cc2)nc1 | inconclusive: 11.2 µM [inhibitor, partial curve, poor fit]
Nc1cc(Cl)ccc1C(=O)OCC(=O)N1CCCC1 | inactive
O=C(CCN1C(=O)c2ccccc2S1(=O)=O)Nc1ccc(F)c([N+](=O)[O-])c1 | inactive
CN1CCC/C1=C1/C(=O)N(c2ccccc2)N=C1NC(=O)Nc1cccc(Cl)c1 | inactive
CC(C)(C)NC(=O)CSc1nsc(SCC(=O)NC(C)(C)C)c1C#N | inconclusive: 23.1 µM [inhibitor, single point]
O=C1CSC(=S)N1Cc1cccnc1 | inconclusive: 14.1 µM [inhibitor, partial curve, poor fit]
O=C(OCN1C(=O)c2ccccc2C1=O)c1ccccc1 | inactive
Cc1ccc(-c2nc3ccccc3c(=O)n2-c2c(C)n(C)n(-c3ccccc3)c2=O)cc1 | inconclusive: 3.16 µM [inhibitor, single point]
Cc1ccc(NC(=O)c2ccc([N+](=O)[O-])o2)cc1S(=O)(=O)N1CCOCC1 | inconclusive: 14.6 µM [inhibitor, partial curve]
COC(=O)c1[nH]c2c(c1C)C(=O)CC(c1ccccc1)C2 (stereo unspecified) | inconclusive: 0.259 µM [inhibitor, full curve, poor fit]
Cc1ccc(-n2c(SCC(=O)Nc3ccc4c(c3)OCCO4)nnc2-c2ccco2)cc1 | inconclusive: 35.5 µM [inhibitor, single point]
Cc1cccc(-c2nn(-c3ccccc3)cc2C(=O)N(C)CC(=O)Nc2ccc(N3CCOCC3)cc2)c1 | inactive
COc1cccc(C(=O)NCCSc2ccc(F)cc2)c1 | inconclusive: 3.16 µM [activator, single point]
O=C(CNC(=O)c1cccs1)NCC(=O)OCc1c(Cl)cccc1Cl | inconclusive: 29.1 µM [activator, partial curve, poor fit]
COc1ccc(OCc2cccc(C(=O)N3CCCC3)c2)cc1 | inconclusive: 35.5 µM [inhibitor, single point]
CCOc1cc(C(C(=O)NCC2CCCO2)N(C(=O)Cn2nnc3ccccc32)c2ccccc2C(C)=O)ccc1O (stereo unspecified) | inconclusive: 0.562 µM [inhibitor, single point]
NC(=O)c1cc(-c2csc(NCCc3ccccc3)n2)ccc1O | inconclusive: 35.5 µM [inhibitor, single point]
COc1ccc(OCCNC(=O)c2ccccc2OCC(=O)Nc2ccc(NC(C)=O)cc2)cc1 | inconclusive: 18.4 µM [inhibitor, single point]

SMILES | Potency
Nc1c(C(=O)c2ccccc2)sc(Nc2ccc(Cl)c(Cl)c2)c1C(=O)Nc1ccccc1 | inconclusive: 12.6 µM [inhibitor, single point]
CCOC(=O)CSc1nc2c(sc3ccccc32)c(=O)n1Cc1ccc(OC)cc1 | inactive
COC1=C(OC)C(=O)c2ccccc2C1=O | active: 20.6 µM
Cc1ccc(CSCC(=O)Nc2ccccc2)cc1 | inactive
CCOc1cnc(-c2c(-c3c(F)cccc3Cl)noc2C)o1 | inactive
O=C(CSc1n[nH]c(-c2ccccc2)n1)Nc1ccccc1O | inconclusive: 28.2 µM [inhibitor, partial curve, poor fit]
CC1CCCN(CCC(=O)Nc2ccc(F)c(F)c2)C1 (stereo unspecified) | inconclusive: 11.2 µM [inhibitor, partial curve, poor fit]
Cc1c(CN2CCC(CO)(Cc3cccc(C(F)(F)F)c3)CC2)c2ccccc2n1C | inconclusive: 35.5 µM [inhibitor, single point]
Cc1ccc(NC(=O)N2CCc3ccccc3C2)c(C)c1 | inactive
C=CCNC(=S)/N=c1/scc(C)n1C | inconclusive: 18.4 µM [activator, single point]
COc1ccc(CNC(=O)CN(Cc2ccc(OC)cc2)C(=O)CCC(=O)Nc2nccs2)cc1 | inconclusive: 11.2 µM [inhibitor, partial curve]
Nc1ncncc1-c1ccc([N+](=O)[O-])cc1 | inconclusive: 2.59 µM [inhibitor, single point]
C=CCCC1(C(=O)c2ccccc2)C(=O)C(CC=C(C)C)=C(OC)C(CC=C(C)C)(CCC=C(C)C)C1=O (stereo unspecified) | inconclusive: 3.35 µM [inhibitor, single point]
CN(C(=O)Cn1nnc(-c2ccc(S(C)(=O)=O)cc2)n1)c1ccccc1 | inactive
C/C(=N\OC(=O)C1CC1)C1CC1c1ccc(F)cc1 (stereo unspecified) | inconclusive: 8.2 µM [inhibitor, partial curve]
Cc1ccc2nc(NC(=O)CN3CCOCC3)sc2c1 | inactive
O=C(c1cnn(C(=O)c2ccccc2)c1)c1ccccc1O | inactive
Oc1[nH]c2ccccc2c1N=Nc1nc2ccccc2s1 | inconclusive: 0.82 µM [activator, partial curve, poor fit]
CC(C)CC(NC(N)=O)C(=O)OCC(=O)NC(=O)NC1CCCC1 (stereo unspecified) | inconclusive: 29.1 µM [activator, single point]
Cc1ccccc1NCc1nc2ccccc2n1CCOc1ccccc1 | inconclusive: 35.5 µM [activator, single point]
Cc1nn(-c2ccccc2)c(C)c1/C=N/n1c(-c2ccc(C(C)(C)C)cc2)n[nH]c1=S | active: 0.112 µM
CC(=O)/C=N/Nc1ccccc1 | inactive
CCOc1ccc(NC(=O)CSc2nc(=O)[nH]c3c2CCC3)cc1 | inconclusive: 3.16 µM [activator, full curve]
O=C(CCCC(=O)N1CCCc2ccccc21)N1CCCc2ccccc21 | inconclusive: 29.1 µM [inhibitor, single point]

A second format for 4 compounds above.
Cc1ccc(CSCC(=O)Nc2ccccc2)cc1
  Potency: inactive
CCOc1cnc(-c2c(-c3c(F)cccc3Cl)noc2C)o1
  Potency: inactive
O=C(CSc1n[nH]c(-c2ccccc2)n1)Nc1ccccc1O
  Potency: inconclusive: 28.2 µM [inhibitor, partial curve, poor fit]
CC1CCCN(CCC(=O)Nc2ccc(F)c(F)c2)C1 (stereo unspecified)
  Potency: inconclusive: 11.2 µM [inhibitor, partial curve, poor fit]

Following part:

SMILES | Potency
Cc1ccc(S(=O)(=O)NCC(=O)NCC(=O)N(C)Cc2ccc3ccccc3c2)cc1C | inactive
O=C(O)c1cccc(COCC(F)(F)C(F)F)c1 | inactive
CC12C=CC(=O)CC1CCC1C2CCC2(C)C(O)C(O)CC12 (stereo unspecified) | inconclusive: 17.8 µM [inhibitor, single point]
Cc1cccc(NC(=O)c2ccccc2NC(=O)C2CCCCC2)c1C | inconclusive: 20.6 µM [inhibitor, partial curve, poor fit]
CCN(c1ccccc1)S(=O)(=O)c1ccc(C(=O)Nc2c(C)n(C)n(-c3ccccc3)c2=O)cc1 | inactive
Nc1[nH]n(-c2ccccc2)c(=O)c1N=Nc1ccc2c(c1)OCCO2 | inconclusive: 7.08 µM [inhibitor, partial curve, poor fit]
COc1cc(C)ccc1OCCSc1nc2ccc(NC(C)=O)cc2s1 | inactive
CSc1ncc(Sc2ccccc2)c(C(=O)O)n1 | inactive
Cc1ccc2[nH]c(=O)c(CN(CCc3ccccc3)Cc3nnnn3CC3CCCO3)cc2c1 (stereo unspecified) | inconclusive: 13 µM [inhibitor, single point]
CCN(CCn1cccn1)C(=O)CC1C(=O)NCCN1CCc1ccccc1 (stereo unspecified) | inactive
O=C(CSc1nnc(-c2n[nH]c3ccccc23)n1-c1ccccc1)Nc1cccc(Cl)c1 | inconclusive: 7.31 µM [inhibitor, partial curve, poor fit]
c1ccc(OCCSc2nnc3sc4ccccc4n23)cc1 | active: 10.3 µM
O=C1COc2ccc(-c3csc(NCCc4ccccc4)n3)cc2N1 | inconclusive: 35.5 µM [inhibitor, single point]
CC1=C(C#N)C(c2ccc(O)cc2)C2=C(CCCC2=O)N1 (stereo unspecified) | inactive
COc1ccc(C(=O)N/N=C/c2ccc(SC)cc2)cc1 | inconclusive: 4.61 µM [inhibitor, full curve]
CSc1nc(N)nc(SCC(=O)Nc2ccc(Cl)cc2)c1C#N | inconclusive: 1.46 µM [activator, partial curve, poor fit]
O=C(c1cc2ccccc2o1)N1CCN(c2ncccn2)CC1 | inactive
Cc1ccc(C(=O)CSc2ccc(-c3ccncc3)nn2)cc1 | inactive
CCOC(=O)/C=C1\SCC(=O)N1CC(=O)NC12CC3CC(CC(C3)C1)C2 | inconclusive: 14.1 µM [activator, partial curve, poor fit]
COc1ccc(/C([O-])=C(/C(=S)Nc2ccc(C)c(C)c2)n2c[n+](C)c3ccccc32)cc1OC | inactive
Cc1cccc(C(=O)N2CCc3cc(CNS(=O)(=O)c4cccs4)ccc32)c1 | inconclusive: 10 µM [inhibitor, partial curve, poor fit]
COc1cccc(N2C(=O)N(c3ccccc3Cl)C3CS(=O)(=O)CC32)c1 (stereo unspecified) | inactive
COCc1ccc(C(=O)N2CCCCC2C(=O)Nc2ccc(-n3nc(C)cc3C)cc2)o1 (stereo unspecified) | inconclusive: 5.62 µM [activator, single point]
